# Test results: PubChem BioAssay AID540276 (National Center for Advancing Translational Sciences (NCATS), 2011)
# Among all 300,000 compounds or so, about 5,400 (1.8%) were called active. The inconclusive results got no clear call from the source; some entries with a clear call stand among them for comparison. Calls follow the shape of the full dose curve; tested in HEK293 cells. A potency beside an inconclusive call is a rough fit, not a confirmed value.
# Experiment: qHTS for inhibitors of binding or entry into cells for Marburg Virus
# Conditions: Marburg virus pseudotyped entry inhibition, cell reporter; activity change, negative = inhibition: at 37.8 µM (top of the series) unless noted
# % is scaled to controls: 0 for no effect and ±100 for the full control effect; potency is read from the fitted curve at half-maximal effect.
Compound,Potency,"activity change, negative = inhibition"
CCOC(=O)c1nnn(-c2nonc2N)c1CN(CC)c1ccccc1,"inconclusive: 3.98 µM [inhibitor, single point]",
CCCn1nnnc1SCC(=O)c1ccc2c(c1)OCCO2,,inactive: 3.16% [at 46.1 µM]
O=C(CNC(=O)c1ccc(Cl)cc1)NCCCn1ccnc1,"inconclusive: 3.55 µM [inhibitor, single point]",
CC(C)n1nnc2ccccc2c1=O,,inactive: 9.23%
CCCCS(=O)(=O)c1oc(-c2cccs2)nc1S(=O)(=O)c1ccc(F)cc1,"inconclusive: 22.4 µM [inhibitor, partial curve, poor fit]",
O=C(CSc1nnc(NC(=O)Cc2ccc(F)cc2)s1)NCc1ccco1,"inconclusive: 5.01 µM [inhibitor, single point]",
N#Cc1ccc(OCC(=O)Nc2cc(S(=O)(=O)N3CCCCC3)ccc2N2CCCCC2)cc1,,inactive: 7.9%
O=c1[nH]c2ccccc2nc1/C=C/c1ccc(F)cc1,"inconclusive: 0.891 µM [activator, full curve, poor fit]",
COc1ccc(Br)cc1/C(C)=N/NC1=NCCN1,"inconclusive: 10 µM [inhibitor, partial curve, poor fit]",
CCC(=O)N1CCc2cc(Br)cc(S(=O)(=O)N3CCC(C(=O)Nc4ccccc4F)CC3)c21,,inactive: 3.6% [at 46.1 µM]
CCCCCOc1ccc(Cn2c(=O)oc3ccc(C)cc32)cc1OC,"inconclusive: 0.562 µM [inhibitor, full curve, poor fit]",
Cc1cc(N2CCN(C(=O)c3ccco3)CC2)nc(-c2ccccc2)n1,"inconclusive: 25.1 µM [inhibitor, single point]",
COCCn1c(C)cc(C(=O)CSc2nc(C)nc3sc4c(c23)CCC4)c1C,active: 3.66 µM,
CN1CCN(c2ccccc2NC(=O)c2ccc(N3CCCC3)c([N+](=O)[O-])c2)CC1,"inconclusive: 11.2 µM [inhibitor, partial curve, poor fit]",
CCCCNc1ccc(C(=O)OCCN(C)C)cc1,"inconclusive: 8.2 µM [activator, partial curve, poor fit]",
CN(C)/C=N/c1sc2c(c1C(N)=O)CCCC2,,inactive: 3.57%
O=[N+]([O-])c1ccccc1S(=O)(=O)NCc1ccc(F)cc1,,inactive: 18% [at 46.1 µM]
Cc1ccc(/C=C/C(=O)O)cc1S(=O)(=O)NCCCO,,inactive: 0.318%
CSCCC(NC(=O)c1ccc([N+](=O)[O-])cc1Cl)C(=O)OC1CCCCC1=O (stereo not given),"inconclusive: 7.08 µM [activator, partial curve, poor fit]",
CCN1CCN(C(c2ccc(OC)cc2)c2nnnn2Cc2ccc3c(c2)OCO3)CC1 (stereo not given),"inconclusive: 32.6 µM [inhibitor, single point]",

# Ordered by SMILES length (smallest number first): three of the compounds above.
Compound,Potency,"activity change, negative = inhibition"
COc1ccc(Br)cc1/C(C)=N/NC1=NCCN1,"inconclusive: 10 µM [inhibitor, partial curve, poor fit]",
CCCCS(=O)(=O)c1oc(-c2cccs2)nc1S(=O)(=O)c1ccc(F)cc1,"inconclusive: 22.4 µM [inhibitor, partial curve, poor fit]",
CCC(=O)N1CCc2cc(Br)cc(S(=O)(=O)N3CCC(C(=O)Nc4ccccc4F)CC3)c21,,inactive: 3.6% [at 46.1 µM]
